Values from PubChem BioAssay AID504764 (Drosophila RNAi Screening Center, 2011).
Aim: 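Genes whose knock-down alters Notch-dependent transcription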 (primary screen). Cell system: Drosophila Kc167 cells. Knock-down reagent: long dsRNA against Drosophila genes. Time to read-out: about 5 days (4 days dsRNA, then 24 h after transfection). Conditions: transfection of constitutively active membrane-tethered Notch lacking the extracellular domain, read 24 h later. Detection: 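Light from a Notch-responsive E(spl)m3 luciferase reporter under active Notch, with control-promoter and no-Notch reporter wells to normalise; raw counts from paired wells a and b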. Reading the numbers: induced reporter light, run 1, well a and induced reporter light, run 1, well b: higher = more light from the Notch target reporter with active Notch; control promoter light, run 1, well a and control promoter light, run 1, well b: higher = more light from the viral control promoter (cell number, transfection, viability); uninduced reporter light, run 1, well a: higher = more light from the Notch target reporter without active Notch. Call rule: 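Wells with low control signal or poorly matching duplicates excluded; duplicates averaged; per source plate, z beyond ±2 for induced/control log2 ratio or beyond ±1.8 for induced/uninduced marks a hit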. Meaning of the calls: active = modifier hit (raised or lowered Notch signal); inactive = not a hit.
In all, the deposit lists about 22,000 reagents; this is a random part of those that have a named target and a result. In the full data, 403 (1.9%) are marked active. 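Unnormalised raw counts per well; ratio z-scores behind the hit calls and whether each hit raises or lowers signal are not deposited.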 The numbers tell different reagents against one gene apart. Names joined by + are all predicted targets of the reagent. Not stated in the record: the amount of reagent.

gene	reagent	induced reporter light, run 1, well a	induced reporter light, run 1, well b	control promoter light, run 1, well a	control promoter light, run 1, well b	uninduced reporter light, run 1, well a	Call
mlt	1	1.99e5	1.54e5	1.64e5	1.49e5	13455	inactive
CG31360	1	74520	50670	58465	69195	7460	inactive
SelR	1	50095	64300	46055	44350	2550	inactive
N	1	1.38e5	1.31e5	1.89e5	1.79e5	8875	inactive
CG9328	1	1.44e5	1.54e5	1.38e5	1.39e5	10965	inactive
pcm	1	1.32e5	1.25e5	97945	69425	8090	inactive
NimB4	1	2.10e5	2.15e5	2.31e5	1.99e5	19615	inactive
RalGPS	1	65320	73875	1.05e5	1.17e5	5505	inactive
bb8	1	1.63e5	2.03e5	2.36e5	2.35e5	14010	inactive
jet	1	1.57e5	1.44e5	1.70e5	1.82e5	15020	inactive
CG14483	1	1.02e5	83385	1.00e5	1.47e5	7320	inactive
CG14275	1	1.46e5	1.64e5	75675	1.15e5	21530	inactive
AspRS-m	1	1.15e5	1.37e5	1.47e5	1.41e5	10510	inactive
Dab	1	2.15e5	1.95e5	2.75e5	2.07e5	7605	inactive
CG34198	1	1.09e5	1.20e5	1.74e5	1.44e5	9185	inactive
Gpb5	1	76695	92750	1.22e5	1.05e5	6490	inactive
CG13284	1	1.36e5	1.42e5	1.63e5	1.86e5	12575	inactive
CG32668	1	85565	86445	1.18e5	93045	7040	inactive
Hsp70Aa + Hsp70Ab	1	54085	47345	64125	67430	6590	inactive
flz	1	2.31e5	2.16e5	2.34e5	2.06e5	18985	inactive
veil	1	98055	89750	1.67e5	1.92e5	8715	inactive
Patronin	1	1.09e5	1.10e5	1.29e5	1.33e5	12005	inactive
Patronin	2	82345	1.07e5	1.56e5	1.19e5	7715	inactive
Patronin	3	34445	28335	45180	45480	3620	inactive
CG1722	1	83630	89460	86820	1.05e5	10015	inactive
Ncc69	1	1.13e5	1.14e5	74845	37085	9015	inactive
Ncc69	2	1.98e5	1.86e5	2.84e5	3.18e5	14325	inactive
CG14411	1	76065	85655	85955	96325	13145	inactive
CG8008	1	1.62e5	1.48e5	1.80e5	2.38e5	14900	active
CG2931	1	71685	73180	64260	54920	6585	inactive
TrissinR	1	1.36e5	1.17e5	1.92e5	1.99e5	9425	inactive
TrissinR	2	99675	92860	1.42e5	1.55e5	8120	inactive
TrissinR	3	1.86e5	1.47e5	1.74e5	1.49e5	10595	inactive
BicD	1	1.23e5	1.09e5	1.11e5	1.09e5	9115	inactive
uif	1	96805	98865	1.34e5	1.16e5	7265	inactive
uif	2	66930	57250	59465	64470	3715	inactive
CG14598	1	84445	98600	1.04e5	82525	5970	inactive
CG9782	1	76635	90290	73155	63270	9215	inactive
CG9782	2	78025	73150	91285	73650	9605	inactive
Cat	1	1.98e5	2.45e5	2.80e5	3.62e5	18975	inactive
EMRE	1	31895	35180	43575	36580	3240	inactive
CG8141	1	2.86e5	2.57e5	2.50e5	2.56e5	20540	inactive
mld	1	93210	88475	63795	67025	10382	inactive
mld	2	1.50e5	1.54e5	2.58e5	2.34e5	15390	inactive
CG33170	1	98045	81040	80905	80955	5000	inactive
Osi23	1	1.23e5	1.25e5	1.63e5	1.70e5	11795	inactive
RpL13	1	14540	13940	17532	19610	1065	inactive
CG13117	1	1.05e5	1.38e5	72790	84380	13975	inactive
Paip2	1	1.41e5	1.45e5	1.02e5	94940	8980	inactive
CG8028	1	80950	1.10e5	1.28e5	1.22e5	11500	inactive
CG11180	1	89195	78480	1.40e5	1.64e5	7505	inactive
Nox	1	1.42e5	1.19e5	1.22e5	1.17e5	13000	inactive
Nox	2	1.20e5	1.11e5	1.88e5	1.42e5	10595	inactive
CG14143	1	1.07e5	1.24e5	1.71e5	1.27e5	5870	inactive
CG32267	1						inactive
dila	1	1.62e5	1.60e5	2.08e5	2.12e5	16500	inactive
mthl3	1	80230	88855	1.61e5	1.46e5	7325	inactive
Mco4	1	70260	63540	54180	57530	8470	inactive
mRpS26	1	1.26e5	1.10e5	1.65e5	1.44e5	6610	inactive
AstA-R1	1	48865	72535	68110	76570	6500	inactive
AstA-R1	2	1.93e5	2.00e5	3.90e5	3.35e5	14580	inactive
Rca1	1	43675	53830	51220	49920	3770	inactive
CG15210	1	1.06e5	84590	1.13e5	1.05e5	7940	inactive
CAH9	1	1.69e5	1.54e5	2.18e5	1.91e5	13720	inactive
